The targets with a hit were mostly taken out for another list; the other results follow. This is a noisy data set. The entries are a selection whose mix differs from that of the whole data set.
The targets below were run with COC(=O)/C=C/c1ccccc1 [methyl cinnamate] (assay: log2 ratio of iodoacetamide-alkyne labeling of the cysteine site, DMSO over compound (competition); higher = stronger covalent engagement of the cysteine by the compound, active = 1 or more). Conditions: 500 µM; treatment time 1 h; system: HEK293T cell lysate.
Summary of the method: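 Reporter intensities give each cysteine's log2 competition ratio as the mean of control channels over the mean of compound channels. The samples were HEK293T lysate (2 mg/mL) given vehicle or electrophile (500 µM, 1 h, ambient temperature), then iodoacetamide alkyne (1 h), followed by click coupling to sCIP-TMT reagents, pooling, trypsin digestion overnight at 37 °C, streptavidin enrichment, acid elution, Orbitrap Eclipse LC-MS/MS with FAIMS and FragPipe quantification. Duplicate channels and three replicates were run, and cysteines quantified in only one replicate were discarded.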

By UniProt entry, the sequences of proteins in these tests, tags left out. Where a name states a change or a piece, a line headed by the entry shows the natural chain unless it says otherwise.
UniProt P85037: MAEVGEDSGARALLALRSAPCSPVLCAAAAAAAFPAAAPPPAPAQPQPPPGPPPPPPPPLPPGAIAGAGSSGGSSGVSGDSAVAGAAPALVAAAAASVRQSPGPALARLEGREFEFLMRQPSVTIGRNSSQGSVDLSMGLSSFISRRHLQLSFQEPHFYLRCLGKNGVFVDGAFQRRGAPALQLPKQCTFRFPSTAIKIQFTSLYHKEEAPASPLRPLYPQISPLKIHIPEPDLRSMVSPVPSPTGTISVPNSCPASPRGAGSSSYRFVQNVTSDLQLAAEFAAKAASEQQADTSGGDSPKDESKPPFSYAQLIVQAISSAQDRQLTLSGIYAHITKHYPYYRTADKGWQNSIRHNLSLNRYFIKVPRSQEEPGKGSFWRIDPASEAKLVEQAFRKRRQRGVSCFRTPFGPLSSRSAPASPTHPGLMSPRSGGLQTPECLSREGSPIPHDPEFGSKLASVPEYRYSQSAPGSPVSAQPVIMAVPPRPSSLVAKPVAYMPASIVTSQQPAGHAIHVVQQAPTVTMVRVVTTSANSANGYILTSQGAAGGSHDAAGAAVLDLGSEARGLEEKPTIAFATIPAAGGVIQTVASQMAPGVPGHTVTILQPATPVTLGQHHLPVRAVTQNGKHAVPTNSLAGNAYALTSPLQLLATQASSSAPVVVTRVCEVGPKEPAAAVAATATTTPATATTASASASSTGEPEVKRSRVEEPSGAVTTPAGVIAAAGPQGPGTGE
UniProt P78347: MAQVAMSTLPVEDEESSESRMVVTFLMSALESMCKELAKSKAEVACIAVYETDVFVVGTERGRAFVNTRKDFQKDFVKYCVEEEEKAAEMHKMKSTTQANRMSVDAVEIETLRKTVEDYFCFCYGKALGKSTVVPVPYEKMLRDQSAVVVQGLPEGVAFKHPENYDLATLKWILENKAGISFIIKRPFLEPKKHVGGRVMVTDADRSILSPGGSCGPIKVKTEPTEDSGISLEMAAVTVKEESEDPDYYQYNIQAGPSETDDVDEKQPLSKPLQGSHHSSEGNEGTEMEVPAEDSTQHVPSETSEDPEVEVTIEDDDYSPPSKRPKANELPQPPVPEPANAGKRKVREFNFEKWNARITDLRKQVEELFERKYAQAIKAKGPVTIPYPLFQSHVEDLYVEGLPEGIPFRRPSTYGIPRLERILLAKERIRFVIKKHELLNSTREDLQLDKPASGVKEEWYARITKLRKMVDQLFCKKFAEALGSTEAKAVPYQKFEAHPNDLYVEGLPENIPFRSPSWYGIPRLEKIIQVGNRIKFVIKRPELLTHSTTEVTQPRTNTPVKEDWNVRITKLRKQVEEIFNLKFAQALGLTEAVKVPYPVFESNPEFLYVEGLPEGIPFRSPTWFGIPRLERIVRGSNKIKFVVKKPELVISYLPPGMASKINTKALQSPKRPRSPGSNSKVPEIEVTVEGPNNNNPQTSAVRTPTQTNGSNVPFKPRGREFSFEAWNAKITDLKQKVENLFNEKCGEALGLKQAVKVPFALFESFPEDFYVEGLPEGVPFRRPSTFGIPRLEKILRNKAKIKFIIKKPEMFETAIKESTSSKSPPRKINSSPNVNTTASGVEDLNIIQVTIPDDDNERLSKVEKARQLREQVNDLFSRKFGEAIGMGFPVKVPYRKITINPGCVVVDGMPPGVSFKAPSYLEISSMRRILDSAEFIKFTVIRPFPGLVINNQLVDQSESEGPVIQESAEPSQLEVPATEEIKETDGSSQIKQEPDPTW
UniProt P62306, whole entry, looked up: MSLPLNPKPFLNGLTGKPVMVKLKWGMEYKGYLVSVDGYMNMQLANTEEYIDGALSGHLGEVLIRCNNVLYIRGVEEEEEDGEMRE
UniProt P78527, whole entry, looked up: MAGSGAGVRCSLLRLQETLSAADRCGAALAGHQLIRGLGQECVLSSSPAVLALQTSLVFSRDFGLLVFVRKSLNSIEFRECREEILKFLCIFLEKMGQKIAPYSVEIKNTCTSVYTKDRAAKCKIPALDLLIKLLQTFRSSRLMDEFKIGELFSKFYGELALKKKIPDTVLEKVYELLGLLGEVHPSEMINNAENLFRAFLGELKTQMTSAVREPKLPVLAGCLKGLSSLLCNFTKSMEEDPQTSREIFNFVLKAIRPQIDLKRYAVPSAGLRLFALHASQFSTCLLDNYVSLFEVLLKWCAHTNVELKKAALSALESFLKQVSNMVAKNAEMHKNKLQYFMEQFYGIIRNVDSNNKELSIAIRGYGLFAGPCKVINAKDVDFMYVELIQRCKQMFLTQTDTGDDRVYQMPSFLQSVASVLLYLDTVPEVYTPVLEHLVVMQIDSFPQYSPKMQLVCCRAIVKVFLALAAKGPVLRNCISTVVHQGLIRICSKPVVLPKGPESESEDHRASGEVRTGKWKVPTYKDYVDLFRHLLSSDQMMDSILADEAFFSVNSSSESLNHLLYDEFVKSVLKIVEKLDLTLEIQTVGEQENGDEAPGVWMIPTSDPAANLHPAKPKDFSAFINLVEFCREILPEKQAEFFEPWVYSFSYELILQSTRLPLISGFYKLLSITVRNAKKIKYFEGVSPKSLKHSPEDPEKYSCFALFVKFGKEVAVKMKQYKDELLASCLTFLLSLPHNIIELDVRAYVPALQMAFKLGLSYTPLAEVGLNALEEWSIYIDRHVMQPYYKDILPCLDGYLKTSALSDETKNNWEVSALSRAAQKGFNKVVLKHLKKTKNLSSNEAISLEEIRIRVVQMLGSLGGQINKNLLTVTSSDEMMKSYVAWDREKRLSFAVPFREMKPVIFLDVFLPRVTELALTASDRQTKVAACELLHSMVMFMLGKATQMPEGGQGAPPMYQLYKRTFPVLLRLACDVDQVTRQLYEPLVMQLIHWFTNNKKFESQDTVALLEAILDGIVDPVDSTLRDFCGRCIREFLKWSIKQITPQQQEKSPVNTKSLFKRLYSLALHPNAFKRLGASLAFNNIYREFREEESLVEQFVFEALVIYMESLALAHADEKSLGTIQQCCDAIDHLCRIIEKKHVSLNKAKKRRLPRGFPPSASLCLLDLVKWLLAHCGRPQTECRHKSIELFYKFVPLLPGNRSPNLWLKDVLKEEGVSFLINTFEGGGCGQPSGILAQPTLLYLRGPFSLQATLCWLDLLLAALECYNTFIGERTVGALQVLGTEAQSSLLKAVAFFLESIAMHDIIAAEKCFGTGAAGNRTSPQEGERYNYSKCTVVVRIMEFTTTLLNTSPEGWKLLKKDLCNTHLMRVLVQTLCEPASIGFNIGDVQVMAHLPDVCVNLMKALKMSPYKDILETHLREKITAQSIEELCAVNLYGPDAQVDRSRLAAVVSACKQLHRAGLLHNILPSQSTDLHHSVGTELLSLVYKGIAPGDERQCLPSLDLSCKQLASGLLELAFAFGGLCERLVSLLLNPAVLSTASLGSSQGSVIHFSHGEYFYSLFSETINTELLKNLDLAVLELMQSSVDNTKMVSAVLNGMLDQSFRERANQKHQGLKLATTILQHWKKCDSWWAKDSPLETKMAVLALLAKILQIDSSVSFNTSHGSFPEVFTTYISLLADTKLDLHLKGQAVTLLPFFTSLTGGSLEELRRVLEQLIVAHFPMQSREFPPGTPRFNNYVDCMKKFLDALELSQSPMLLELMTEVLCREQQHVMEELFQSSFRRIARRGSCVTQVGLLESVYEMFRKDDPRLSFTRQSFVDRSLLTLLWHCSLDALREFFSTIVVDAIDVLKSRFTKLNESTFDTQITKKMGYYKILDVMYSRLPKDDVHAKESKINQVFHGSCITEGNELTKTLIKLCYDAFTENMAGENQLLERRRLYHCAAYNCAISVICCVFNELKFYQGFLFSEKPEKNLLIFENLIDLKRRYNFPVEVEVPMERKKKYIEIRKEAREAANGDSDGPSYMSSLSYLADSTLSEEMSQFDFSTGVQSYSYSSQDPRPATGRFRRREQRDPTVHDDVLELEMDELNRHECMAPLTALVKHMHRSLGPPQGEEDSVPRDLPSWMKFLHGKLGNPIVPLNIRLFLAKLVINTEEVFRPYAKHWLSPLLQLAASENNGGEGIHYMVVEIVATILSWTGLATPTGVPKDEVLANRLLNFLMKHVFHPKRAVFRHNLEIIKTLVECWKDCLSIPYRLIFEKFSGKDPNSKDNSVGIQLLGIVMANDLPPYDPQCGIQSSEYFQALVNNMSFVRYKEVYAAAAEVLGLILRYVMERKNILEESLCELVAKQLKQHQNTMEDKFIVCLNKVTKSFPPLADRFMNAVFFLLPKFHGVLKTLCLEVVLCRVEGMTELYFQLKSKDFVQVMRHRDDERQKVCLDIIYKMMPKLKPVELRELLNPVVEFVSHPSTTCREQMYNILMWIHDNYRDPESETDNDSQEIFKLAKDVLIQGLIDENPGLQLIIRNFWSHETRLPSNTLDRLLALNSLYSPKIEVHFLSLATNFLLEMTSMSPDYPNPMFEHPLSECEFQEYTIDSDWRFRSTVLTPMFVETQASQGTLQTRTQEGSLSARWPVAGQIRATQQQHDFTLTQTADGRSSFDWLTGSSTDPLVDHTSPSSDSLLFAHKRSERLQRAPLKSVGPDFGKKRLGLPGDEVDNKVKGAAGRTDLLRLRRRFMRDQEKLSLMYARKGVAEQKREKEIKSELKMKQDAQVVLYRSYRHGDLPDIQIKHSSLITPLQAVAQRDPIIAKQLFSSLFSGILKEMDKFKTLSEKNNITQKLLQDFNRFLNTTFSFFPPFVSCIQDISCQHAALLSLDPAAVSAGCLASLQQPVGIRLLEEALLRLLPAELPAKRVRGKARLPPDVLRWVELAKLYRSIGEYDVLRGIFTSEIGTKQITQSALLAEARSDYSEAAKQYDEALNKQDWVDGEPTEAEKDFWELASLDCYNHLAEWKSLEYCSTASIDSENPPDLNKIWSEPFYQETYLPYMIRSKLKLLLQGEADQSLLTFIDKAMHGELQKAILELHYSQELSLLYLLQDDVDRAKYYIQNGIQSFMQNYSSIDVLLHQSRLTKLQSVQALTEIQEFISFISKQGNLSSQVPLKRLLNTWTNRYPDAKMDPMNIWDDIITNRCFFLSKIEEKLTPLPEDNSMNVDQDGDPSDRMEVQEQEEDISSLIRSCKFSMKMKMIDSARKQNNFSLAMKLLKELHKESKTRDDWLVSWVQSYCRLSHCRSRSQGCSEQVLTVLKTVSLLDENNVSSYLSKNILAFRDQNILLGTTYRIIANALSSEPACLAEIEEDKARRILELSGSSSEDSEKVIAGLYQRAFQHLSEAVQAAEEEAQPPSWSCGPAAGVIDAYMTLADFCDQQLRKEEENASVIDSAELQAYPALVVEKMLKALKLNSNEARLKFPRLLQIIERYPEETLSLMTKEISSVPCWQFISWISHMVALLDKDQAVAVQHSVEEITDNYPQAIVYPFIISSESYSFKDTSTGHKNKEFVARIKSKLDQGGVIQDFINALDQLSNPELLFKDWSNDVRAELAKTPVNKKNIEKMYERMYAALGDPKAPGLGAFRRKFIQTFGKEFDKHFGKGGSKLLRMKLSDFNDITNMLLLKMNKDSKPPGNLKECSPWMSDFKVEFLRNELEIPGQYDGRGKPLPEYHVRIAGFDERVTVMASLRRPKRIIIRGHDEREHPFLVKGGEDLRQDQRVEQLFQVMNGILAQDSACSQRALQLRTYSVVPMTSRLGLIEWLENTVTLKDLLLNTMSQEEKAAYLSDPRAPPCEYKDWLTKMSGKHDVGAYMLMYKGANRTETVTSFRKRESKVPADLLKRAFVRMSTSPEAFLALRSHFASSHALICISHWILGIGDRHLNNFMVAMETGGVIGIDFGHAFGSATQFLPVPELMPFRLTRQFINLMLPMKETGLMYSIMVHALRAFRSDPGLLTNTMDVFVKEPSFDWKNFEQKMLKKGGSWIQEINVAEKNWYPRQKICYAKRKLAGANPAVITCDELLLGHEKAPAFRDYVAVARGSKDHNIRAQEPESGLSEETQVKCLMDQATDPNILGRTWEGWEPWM
UniProt P68104, whole entry, looked up: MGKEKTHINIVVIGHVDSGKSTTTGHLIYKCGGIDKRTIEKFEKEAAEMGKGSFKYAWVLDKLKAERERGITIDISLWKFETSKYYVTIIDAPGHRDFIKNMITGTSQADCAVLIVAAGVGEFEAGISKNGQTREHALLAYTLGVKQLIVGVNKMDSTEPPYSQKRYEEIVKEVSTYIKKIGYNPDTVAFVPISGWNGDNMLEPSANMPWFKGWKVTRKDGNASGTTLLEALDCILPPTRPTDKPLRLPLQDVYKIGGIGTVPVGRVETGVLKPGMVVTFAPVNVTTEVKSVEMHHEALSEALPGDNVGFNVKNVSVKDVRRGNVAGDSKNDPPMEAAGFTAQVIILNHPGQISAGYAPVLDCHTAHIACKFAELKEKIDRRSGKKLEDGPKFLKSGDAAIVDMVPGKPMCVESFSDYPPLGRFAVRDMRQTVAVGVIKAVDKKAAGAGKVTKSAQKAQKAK
UniProt P62633: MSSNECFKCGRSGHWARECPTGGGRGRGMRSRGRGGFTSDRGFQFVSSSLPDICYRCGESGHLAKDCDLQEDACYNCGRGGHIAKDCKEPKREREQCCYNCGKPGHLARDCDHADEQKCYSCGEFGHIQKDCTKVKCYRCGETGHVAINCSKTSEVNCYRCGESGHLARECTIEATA

log2 ratio of iodoacetamide-alkyne labeling, inactive:
PAFAH1B2 C188 (UniProt P68402) -0.0663
CLTC C459 (UniProt Q00610) 0.188
EIF4G2 C253 (UniProt P78344) 0.156
SPTBN1 C1900 (UniProt Q01082) -0.145
FOXK1 C254 (UniProt P85037) 0.327
CLTC C491 (UniProt Q00610) 0.149
ATP2C1 C162 (UniProt P98194) 0.0601
AMPD2 C123 (UniProt Q01433) 0.173
UniProt P62753_C83 0.187
GTF2I C80 (UniProt P78347) 0.232
CDR2 C121 (UniProt Q01850) -0.135
KIF23 C791 (UniProt Q02241) 0.304
TFAP4 C29 (UniProt Q01664) 0.0196
UniProt P62306_C66 0.134
UniProt P78527_C3781 0.0515
EWSR1 C540 (UniProt Q01844) 0.14
FOXK1 C665 (UniProt P85037) 0.366
XPC C224 (UniProt Q01831) 0.0828
UniProt P62826_C112 -0.00891
EEF1A1 C411 (UniProt P68104) 0.322
CNBP C57 (UniProt P62633) 0.0536
MRPS6 C105 (UniProt P82932) 0.231

Reprinted at random: 2 records from the list
log2 ratio of iodoacetamide-alkyne labeling, inactive:
KIF23 C791 (UniProt Q02241) 0.304
FOXK1 C254 (UniProt P85037) 0.327
